This is an account of results in PubChem BioAssay AID2685 (National Center for Advancing Translational Sciences (NCATS), 2010).

Some of the results follow. These are further read-outs of the screen, such as a control signal, another cell line or another target. No call is given for them. Compounds called inactive in the main read-out are mostly missing here. Words in brackets tell the shape of the fitted curve; partial curves, single points and poor fits give uncertain potencies.

The experiment can be described thus: qHTS Assay for Lipid Storage Modulators in Drosophila S3 Cells.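 For cell number change: cells counted by Cell Tracker Red CMTPX staining in the red channel.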 As to conditions: BODIPY lipid droplet fluorescence, 18-24 h; for cell number change: measured here: cell count max response, cells fed with added oleic acid. The gist of the method:
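Laser-scanning cytometry quantifies lipid droplet accumulation (500–530 nm total intensity; droplet/cell object ratio) in oleic acid-fed (400 uM added) Drosophila S3 cells treated with a concentration series. 20 uM Triacsin C defined 100% inhibition.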
For orientation: Quantitative high-throughput screening tests each substance at several concentrations.

Where [1] appears, read: measured here: lipid fluorescence (Fed channel) AC50, cells fed with added oleic acid.
Where [2] appears, read: measured here: cell number channel AC50, cells fed with added oleic acid.

By AC50 is commonly meant the concentration giving half of the maximal activity seen. The low end stands for greater potency, the high end for weaker potency.

As to `O=C(c1ccc(F)cc1)C1CCN(Cc2cn[nH]c2-c2ccc(F)cc2)CC1`, the cell number change is -2.65%. Also, under setting [1], the AC50 was 6.51 µM [falling, single point].
Turning to `COc1ccc(C(c2nnnn2C2CCCC2)N2CCC(C)CC2)c(OC)c1` (stereo not given), the AC50 was 0.164 µM [falling, full curve, poor fit] under setting [2] and 6.51 µM [rising, single point] under setting [1].
Turning to `O=C(NCCc1ccc(Cl)cc1)c1ccc2[nH]c(=O)c(=O)[nH]c2c1`, the cell number change is 3.44%. Besides, the half-maximal activity concentration (AC50) under setting [1] was 16.4 µM [rising, single point].
Take `O=C(NCC1CCCO1)C(c1ccncc1)N(Cc1cccs1)C(=O)Cn1nnc(-c2ccc(F)cc2)n1` (stereo not given): the cell number change was determined as 1.02%. In addition, the AC50 under setting [1] is 3.66 µM [falling, partial curve, poor fit].
Consider `CCCN(CCC)S(=O)(=O)c1ccc(NC(=O)c2cc(C(=O)OC)cc([N+](=O)[O-])c2)cc1`, for which the cell number change came out at 29.2%.
Consider `Cc1cccc(OCC(=O)N(C)c2c(N)n(Cc3ccccc3)c(=O)[nH]c2=O)c1C`, for which the cell number change is -8.23%. Besides, the AC50 under setting [1] was 1.84 µM [falling, partial curve].
Turning to `Cc1cc(NS(=O)(=O)c2ccc(C3CCCCC3)cc2)no1`, the cell number change is -6.66%. For the same compound, under setting [1], the half-maximal activity concentration (AC50) was 0.651 µM [falling, single point].
With `Cc1cc(NC(=O)CSc2nnc(-c3ccoc3C)o2)no1`, the cell number change came out at 2.15%. The AC50 under setting [1] was 29.1 µM [falling, single point].
On to `O=C(Nc1ccccc1F)c1ccc(CN2CCc3ccccc3C2)cc1`, for which the AC50 under setting [1] is 29.1 µM [rising, single point].
Regarding `Cn1ccnc1SCC(=O)c1ccc(O)cc1`, the cell number change is -14.7%. Further, the AC50 under setting [1] was 0.13 µM [falling, full curve, poor fit].
With `CCC(=O)NC(c1ccc([N+](=O)[O-])cc1)c1c(O)ccc2ccccc12` (stereo not given), the cell number change is -72.7%. Moreover, under setting [2], the AC50 is 29.1 µM [falling, single point]. Also, the half-maximal activity concentration (AC50) under setting [1] is 29.1 µM [falling, single point].
With `NS(=O)(=O)c1cccc(C(=O)NC2CCSc3ccccc32)c1` (stereo not given), the cell number change was determined as 23.7%. Further, under setting [1], the AC50 is 3.55 µM [rising, partial curve].
Take `CCOC(=O)c1cc2c(=O)n3cccc(C)c3nc2n(C)c1=N`: the cell number change was -11.6%.
For the compound `CSc1sc(C)cc1C=O`, the cell number change was -31.1%. The AC50 under setting [1] is 3.26 µM [falling, partial curve].
With `O=C(COC(=O)c1ccc2c(c1)OCO2)Nc1ccccc1F`, the cell number change was -31.3%. In addition, under setting [2], the concentration at half-maximal activity (AC50) was 29.1 µM [falling, single point]. Further, the AC50 under setting [1] was 29.1 µM [falling, single point].
In the case of `CC1CN(S(=O)(=O)c2ccc(C(=O)O)cc2)CC(C)O1` (stereo not given), the cell number change is -50.6%. The concentration at half-maximal activity (AC50) under setting [2] is 20.6 µM [falling, single point].
Turning to `O=C(c1ccccc1)N1CCN(C(=O)c2cc3ccccc3oc2=O)CC1`, the cell number change is -16.7%.
Take `C(=N\Nc1nc2ccccc2[nH]1)/c1cccs1`: the cell number change is -46.1%. In addition, the half-maximal activity concentration (AC50) under setting [2] was 29.1 µM [falling, single point]. In addition, the AC50 under setting [1] is 23.1 µM [falling, partial curve].
Regarding `Cc1cc(C)c(NC(=O)COC(=O)/C=C/c2cccc(C(F)(F)F)c2)c(C)c1`, the cell number change was 7.69%. In addition, the AC50 under setting [1] was 0.411 µM [rising, single point].
Regarding `CCCCc1nnc(NC(=O)CN2C(=O)c3ccccc3C2=O)s1`, the cell number change is 8.52%. In addition, the AC50 under setting [1] is 6.31 µM [falling, single point].
With `CCOc1ccc(CN2CCNC(=O)C2CC(=O)NCCN2CCOC2=O)cc1` (stereo not given), the cell number change was -25.2%. Moreover, the AC50 under setting [2] was 0.00164 µM [falling, full curve].
`CC12CN3CCN(CC(C3)C1(O)CN1CCOCC1)C2` (stereo not given): the AC50 under setting [1] was 1.46 µM [falling, full curve].
`Cc1occc1C(=O)NCc1ccccn1`: the cell number change is -78.2%. In addition, the AC50 under setting [2] was 32.6 µM [falling, single point]. In addition, the half-maximal activity concentration (AC50) under setting [1] was 29.1 µM [falling, single point].
For the compound `Cc1ccc2c(c1)N(CC(=O)N1CCN(C3CCCCC3)CC1)C(=O)CO2`, the cell number change was found to be 20.9%. Further, the AC50 under setting [2] is 2.31 µM [rising, partial curve, poor fit]. Besides, the AC50 under setting [1] is 29.1 µM [rising, single point].
As to `CSc1ccc(-c2nc(CN3CCCCC3c3cccnc3)c(C)o2)cc1` (stereo not given), the cell number change is -15.6%. Under setting [1], the AC50 was 29.1 µM [falling, single point].
Regarding `CC1=CC(C)(C)Nc2ccc(OC(=O)CN3C(=O)c4ccccc4C3=O)cc21`, the cell number change is -32.1%. The AC50 under setting [2] was 29.1 µM [falling, single point]. In addition, the AC50 under setting [1] was 0.092 µM [rising, full curve, poor fit].
Consider `Cc1c(N(C(=O)Nc2ccccc2)C2=NCC(C)S2)c(=O)n(-c2ccccc2)n1C` (stereo not given), for which the cell number change was -0.406%.
Turning to `O=C(CCNC(=O)c1ccc([N+](=O)[O-])cc1)Nc1nc2ccccc2[nH]1`, the cell number change worked out at 5.22%.
As for `COc1ccc(C2C(C(=O)c3cccs3)=C(O)C(=O)N2CCN2CCOCC2)c(OC)c1` (stereo not given), the cell number change was -23.4%. Moreover, the AC50 under setting [1] was 29.1 µM [falling, partial curve, poor fit].
In the case of `O=C(C1CCN(S(=O)(=O)c2cccnc2)CC1)N1CCN(c2ccccc2Cl)CC1`, the cell number change was determined as 8.22%. The AC50 under setting [2] is 2.06 µM [rising, single point]. Further, under setting [1], the AC50 was 0.13 µM [rising, full curve, poor fit].
With `Cc1sc2ncnc(SCC(=O)NC3CCCC3)c2c1C`, the cell number change was 10%.
For `Cc1nc(SCc2ccc(C(=O)O)cc2)c2c(C)c(C)sc2n1`, the cell number change is -1.38%. Also, under setting [1], the AC50 is 6.51 µM [falling, single point].
Take `COc1ccccc1CNC(=O)c1ccc(NS(C)(=O)=O)cc1`: the cell number change came to 7.94%.
Regarding `CC(C)(C)c1ccc(CN2N=C(/C=C/c3ccccc3)CCC2=O)cc1`, the AC50 under setting [1] was 0.146 µM [rising, full curve, poor fit].
As to `CCOC(=O)C1=C(C)Nc2nnnn2C1c1ccccc1Cl` (stereo not given), the cell number change was -40.2%. Further, the AC50 under setting [1] is 14.6 µM [falling, partial curve, poor fit].
As to `CC(OC(=O)c1cc2sccc2n1C)C(=O)NCc1ccco1` (stereo not given), the cell number change amounted to 90.2%. The AC50 under setting [2] is 8.2 µM [rising, partial curve].
Regarding `O=C(CCCSc1nc2sc3c(c2c(=O)[nH]1)CCC3)NCCO`, the cell number change was 0.485%.
Consider `Cc1ccc2c(Cl)cc(Cl)c(OCc3c(C)noc3C)c2n1`, for which the cell number change is -8.91%. For the same compound, the AC50 under setting [1] is 0.411 µM [rising, full curve].
As to `O=C(NCC1CCCO1)c1cc2c(s1)CCCC2` (stereo not given), the cell number change is 16%.
Regarding `CC(C)CC(=O)NC(=S)Nc1ccc(S(=O)(=O)NC(C)(C)C)cc1`, the cell number change amounted to 10.2%. Further, under setting [1], the AC50 was 32.6 µM [falling, single point].
